PubChem BioAssay AID1508597 – Cure First – 2020

Purpose: 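Genes whose silencing sensitises or protects ovarian cancer cells against rucaparib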 (primary screen)
Cell system: human ovarian carcinoma lines grown from tumours: OCI-P5x (papillary serous) and OCI-C5x (clear cell)
Reagent: siRNA pool against human genes, 1.25 pmol siRNA per well
Duration: 72 h or 96 h, depending on the cell culture
Conditions: rucaparib 20 µM (about IC30) or vehicle, present until read-out
Rucaparib or vehicle: Rucaparib
Cell line: OCI-P5x (serous)
Detection: 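ATP luminescence measured at 72 or 96 h according to the culture, then normalised and expressed as percent viability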
Direction: viability, normalised: higher = more viable cells remaining
Rule for the call: 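a well counts as a hit if its normalised viability is under 80 percent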
Calls: active = viability under 80%; inactive = viability 80% or more
This is an unselected part of the about 2,100 reagents, in one setting of the screen. 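Calls flag viability under 80% in either arm, not effects specific to rucaparib; the reference for percent is not stated.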 The record does not give: the 100% reference.

gene | technical replicate | viability, normalised (%) | outcome
CRADD (CARD and death domain containing adaptor protein) | 1 | 72.6 | active
CRADD (CARD and death domain containing adaptor protein) | 2 | 79.8 | active
CRADD (CARD and death domain containing adaptor protein) | 3 | 82.8 | inactive
FOXP1 (forkhead box P1) | 1 | 38.8 | active
FOXP1 (forkhead box P1) | 2 | 54.1 | active
FOXP1 (forkhead box P1) | 3 | 39.8 | active
SUV39H2 (SUV39H2 histone lysine methyltransferase) | 1 | 60.3 | active
SUV39H2 (SUV39H2 histone lysine methyltransferase) | 2 | 51.3 | active
SUV39H2 (SUV39H2 histone lysine methyltransferase) | 3 | 47.2 | active
HPS1 (HPS1 biogenesis of lysosomal organelles complex 3 subunit 1) | 1 | 53.6 | active
HPS1 (HPS1 biogenesis of lysosomal organelles complex 3 subunit 1) | 2 | 55.2 | active
HPS1 (HPS1 biogenesis of lysosomal organelles complex 3 subunit 1) | 3 | 60 | active
SLC1A2 | 1 | 34 | active
SLC1A2 | 2 | 52 | active
SLC1A2 | 3 | 52.2 | active
BRAF (B-Raf proto-oncogene, serine/threonine kinase) | 1 | 79.3 | active
BRAF (B-Raf proto-oncogene, serine/threonine kinase) | 2 | 79.4 | active
BRAF (B-Raf proto-oncogene, serine/threonine kinase) | 3 | 53.6 | active
PRC1 (protein regulator of cytokinesis 1) | 1 | 82.1 | inactive
PRC1 (protein regulator of cytokinesis 1) | 2 | 59.5 | active
PRC1 (protein regulator of cytokinesis 1) | 3 | 85 | inactive
LEF1 (lymphoid enhancer binding factor 1) | 1 | 56.4 | active
LEF1 (lymphoid enhancer binding factor 1) | 2 | 55.8 | active
LEF1 (lymphoid enhancer binding factor 1) | 3 | 43.5 | active
BRD1 (bromodomain containing 1) | 1 | 47 | active
BRD1 (bromodomain containing 1) | 2 | 65.7 | active
BRD1 (bromodomain containing 1) | 3 | 65.6 | active
AIFM2 (AIF family member 2, ferroptosis suppressor) | 1 | 72.7 | active
AIFM2 (AIF family member 2, ferroptosis suppressor) | 2 | 72 | active
AIFM2 (AIF family member 2, ferroptosis suppressor) | 3 | 77.5 | active
PCDHB3 (protocadherin beta 3) | 1 | 51.1 | active
PCDHB3 (protocadherin beta 3) | 2 | 52.1 | active
PCDHB3 (protocadherin beta 3) | 3 | 51.3 | active
PRKRA | 1 | 40.2 | active
PRKRA | 2 | 52 | active
PRKRA | 3 | 53.1 | active
ERN2 (endoplasmic reticulum to nucleus signaling 2) | 1 | 92.3 | inactive
ERN2 (endoplasmic reticulum to nucleus signaling 2) | 2 | 80.1 | inactive
ERN2 (endoplasmic reticulum to nucleus signaling 2) | 3 | 74.6 | active
